The results in this text go back to publication PMC2978108.

Sequences of proteins named here, by UniProt entry; tags and fusion partners are left off. A change or cut given only in a name is not applied to a line headed by its entry.
UniProt P13466: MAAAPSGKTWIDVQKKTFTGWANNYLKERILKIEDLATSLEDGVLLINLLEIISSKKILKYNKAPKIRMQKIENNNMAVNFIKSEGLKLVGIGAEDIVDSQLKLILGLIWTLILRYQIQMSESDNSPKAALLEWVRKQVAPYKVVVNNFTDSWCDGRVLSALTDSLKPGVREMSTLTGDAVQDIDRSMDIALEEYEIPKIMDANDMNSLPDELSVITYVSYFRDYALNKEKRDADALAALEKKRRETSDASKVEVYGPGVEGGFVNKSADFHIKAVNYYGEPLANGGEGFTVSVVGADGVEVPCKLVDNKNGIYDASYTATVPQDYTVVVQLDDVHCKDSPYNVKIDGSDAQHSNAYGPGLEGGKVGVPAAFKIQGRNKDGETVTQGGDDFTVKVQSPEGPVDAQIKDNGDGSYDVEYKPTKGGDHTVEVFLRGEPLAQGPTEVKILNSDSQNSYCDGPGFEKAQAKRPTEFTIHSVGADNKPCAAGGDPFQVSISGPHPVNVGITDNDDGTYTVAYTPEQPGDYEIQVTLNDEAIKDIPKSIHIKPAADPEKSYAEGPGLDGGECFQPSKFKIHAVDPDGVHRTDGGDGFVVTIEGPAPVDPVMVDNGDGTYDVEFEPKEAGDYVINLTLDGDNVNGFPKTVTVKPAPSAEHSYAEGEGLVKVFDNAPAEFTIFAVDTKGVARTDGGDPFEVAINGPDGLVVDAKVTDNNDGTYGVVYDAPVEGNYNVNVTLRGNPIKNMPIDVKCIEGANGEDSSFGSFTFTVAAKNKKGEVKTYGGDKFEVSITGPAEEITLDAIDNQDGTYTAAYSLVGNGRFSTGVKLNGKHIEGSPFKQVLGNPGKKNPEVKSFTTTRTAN
UniProt P34147: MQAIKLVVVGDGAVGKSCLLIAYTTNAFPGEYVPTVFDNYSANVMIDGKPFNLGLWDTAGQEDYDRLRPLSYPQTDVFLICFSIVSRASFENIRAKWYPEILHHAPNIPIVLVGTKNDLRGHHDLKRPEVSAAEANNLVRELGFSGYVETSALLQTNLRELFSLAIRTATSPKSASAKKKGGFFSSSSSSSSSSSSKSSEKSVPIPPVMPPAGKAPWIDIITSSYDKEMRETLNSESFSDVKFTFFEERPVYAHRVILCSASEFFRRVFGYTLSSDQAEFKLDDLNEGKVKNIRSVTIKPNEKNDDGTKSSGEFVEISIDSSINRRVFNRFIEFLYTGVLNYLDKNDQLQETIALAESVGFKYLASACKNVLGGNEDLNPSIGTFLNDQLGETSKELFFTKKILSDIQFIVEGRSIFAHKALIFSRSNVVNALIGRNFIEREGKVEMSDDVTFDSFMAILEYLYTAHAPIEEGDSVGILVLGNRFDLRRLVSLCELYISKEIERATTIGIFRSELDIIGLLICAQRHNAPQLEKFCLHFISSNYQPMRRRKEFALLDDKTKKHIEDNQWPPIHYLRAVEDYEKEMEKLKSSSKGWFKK
UniProt P34148: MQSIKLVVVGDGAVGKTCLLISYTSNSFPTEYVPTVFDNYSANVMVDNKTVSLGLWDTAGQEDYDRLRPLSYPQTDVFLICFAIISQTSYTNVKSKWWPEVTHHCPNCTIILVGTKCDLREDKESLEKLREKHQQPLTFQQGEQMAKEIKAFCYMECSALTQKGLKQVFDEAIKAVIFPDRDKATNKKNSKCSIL
UniProt P34149: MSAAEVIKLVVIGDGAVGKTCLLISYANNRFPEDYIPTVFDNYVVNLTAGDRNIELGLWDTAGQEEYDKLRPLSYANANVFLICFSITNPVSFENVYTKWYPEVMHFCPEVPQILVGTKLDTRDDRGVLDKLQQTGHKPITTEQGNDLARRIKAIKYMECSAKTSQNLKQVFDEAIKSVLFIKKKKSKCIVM

Results are given in words; binding and its absence hold for the method and conditions named. For some assays here: Binding seen in cells or lysates may run through a third protein. Some results given as binding are weak or reduced against the parent protein; the word gives no strength. For some assays here: Where a sequence is shown, tags or fusion partners need not be part of it.

The target of experiment [1] is GST fused Rac1a (D. discoideum) (D. discoideum) (UniProt P34144). As to the kind of experiment: pull-down; GST fused Rac1a on glutathione sepharose beads incubated with lysates of cells expressing GFP-GAPA in the presence of either 100 µM GDP or GTPγS; blot with GFP and Filamin mAbs; only the target purified.
For experiment [2], the target named is T1, GST-GRD (GRD domain of GAPA, residues 202-557, GST fusion) (D. discoideum) (UniProt O00899).
T1 sequence: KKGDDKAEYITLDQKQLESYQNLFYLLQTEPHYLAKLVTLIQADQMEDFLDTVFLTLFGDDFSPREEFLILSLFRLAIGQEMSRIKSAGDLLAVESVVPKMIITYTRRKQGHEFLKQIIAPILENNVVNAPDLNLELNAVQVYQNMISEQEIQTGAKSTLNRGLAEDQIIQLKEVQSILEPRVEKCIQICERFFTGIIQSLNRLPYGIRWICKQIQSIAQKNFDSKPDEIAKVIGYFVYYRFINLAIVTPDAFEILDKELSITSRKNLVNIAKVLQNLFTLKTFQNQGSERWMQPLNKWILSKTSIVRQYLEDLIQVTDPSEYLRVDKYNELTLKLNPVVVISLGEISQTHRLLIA
As to the kind of experiment: pull-down; glutathione sepharose beads coated with GST-GRD or GST-GAPA incubated with D. discoideum cell lysates at 4°C; eluates resolved by SDS-PAGE and immunoblotted; only the target purified. Background: Immunoblotting shows a protein as a band on a membrane.

Experiment [3] concerns the target T2, GST-GAPA (full length GAPA, GST fusion) (D. discoideum) (UniProt O00899).
T2 sequence: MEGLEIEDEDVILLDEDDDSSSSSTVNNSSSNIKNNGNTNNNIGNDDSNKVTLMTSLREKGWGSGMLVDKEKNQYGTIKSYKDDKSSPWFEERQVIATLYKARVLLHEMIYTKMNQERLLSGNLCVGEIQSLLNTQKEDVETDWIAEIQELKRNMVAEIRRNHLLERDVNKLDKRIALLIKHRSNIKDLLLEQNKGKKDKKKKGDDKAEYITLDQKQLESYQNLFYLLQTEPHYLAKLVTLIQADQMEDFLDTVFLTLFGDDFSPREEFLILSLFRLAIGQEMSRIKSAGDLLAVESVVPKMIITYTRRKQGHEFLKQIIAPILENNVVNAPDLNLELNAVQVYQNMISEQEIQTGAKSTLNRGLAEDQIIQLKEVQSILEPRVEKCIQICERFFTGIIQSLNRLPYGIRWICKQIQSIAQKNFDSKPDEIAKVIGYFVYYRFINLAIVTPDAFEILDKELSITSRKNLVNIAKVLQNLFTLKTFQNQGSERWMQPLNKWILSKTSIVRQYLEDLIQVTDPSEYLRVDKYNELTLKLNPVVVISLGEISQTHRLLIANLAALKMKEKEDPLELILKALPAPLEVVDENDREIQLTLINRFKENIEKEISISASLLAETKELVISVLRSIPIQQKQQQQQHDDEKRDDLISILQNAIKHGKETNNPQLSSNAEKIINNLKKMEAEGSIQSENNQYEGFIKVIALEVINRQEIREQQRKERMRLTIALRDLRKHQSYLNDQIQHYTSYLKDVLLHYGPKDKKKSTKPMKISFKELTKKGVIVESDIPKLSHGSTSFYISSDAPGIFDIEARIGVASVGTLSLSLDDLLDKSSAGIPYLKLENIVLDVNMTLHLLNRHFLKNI
The experiment is described as above.

The target of experiment [4] is GST fused Rac1a (D. discoideum) (D. discoideum) (UniProt P34144). As to the kind of experiment: pull-down; GST fused Rac1a with lysates of GAPA^- cells expressing GFP-FLN; blot with GFP mAb; only the target purified.
The target in experiment [5] is T1, GST-GRD (GRD domain of GAPA, residues 202-557, GST fusion) (D. discoideum). As to the kind of experiment: pull-down; GST-GRD bound beads incubated 3 hrs at 4°C with lysates of cells expressing Rac proteins as GFP fusions; 25 mM Tris/HCl pH 7.5, 150 mM NaCl, 5 mM EDTA, 0.5% Triton X-100, 1 mM NaF, 0.5 mM Na3VO4, 1 mM DTT; blot with GFP mAb; only the target purified.

For experiment [6] the target is unchanged. Put plainly: pull-down; glutathione sepharose beads coated with GST-GRD or GST-GAPA incubated with D. discoideum cell lysates at 4°C; eluates resolved by SDS-PAGE and immunoblotted; only the target purified. This is another data set of the same source.
In experiment [7] the target is T3, GFP-GAPA (full length GAPA fused to GFP at the N-terminus) (D. discoideum) (UniProt O00899).
T3 sequence: T2 sequence
Put plainly: SEC; analytical gel filtration on Sephadex G200 (SMART system) of lysate of AX2 cells expressing GFP-GAPA; 25 mM Tris/HCl pH 7.5, 150 mM NaCl, 5 mM EDTA, 0.5% Triton-X100, 1 mM DTT; fractions blotted with GFP mAb. In general terms: SEC sorts molecules by how far they enter the pores of the column.

In experiment [8] the target is GST fused Rac1a (D. discoideum) (D. discoideum) (UniProt P34144). As to the kind of experiment: pull-down; GST fused Rac1a on glutathione sepharose beads incubated with lysates of cells expressing GFP-GAPA in the presence of either 100 µM GDP or GTPγS; blot with GFP and Filamin mAbs; only the target purified. This is another data set of the same source.
For experiment [9], the target named is T3, GFP-GAPA (full length GAPA fused to GFP at the N-terminus) (D. discoideum). As to the kind of experiment: co-IP; GFP-GAPA immunoprecipitated with GFP mAb K3-184-2 from extracts of cells expressing GFP-GAPA; blot with polyclonal antibodies against Cortexillin I.

As to “Filamin (endogenous, D. discoideum) (from UniProt P13466 1-857)”, the binding result in experiment [1], in [2] and in [3] was “binds” each time.

As to “GFP-FLN (full length Filamin with GFP at the C-terminus) (from UniProt P13466 1-857)”, the binding entry in experiment [2] and in experiment [4] was “binds” in each case.

As for “GFP-FLN^S174A (full length Filamin mutated at position 174 in the ABD, GFP-tagged) (from UniProt P13466 1-857)”, in [2], the binding result was “binds”.

For “GFP-Rac1a (D. discoideum Rac1a as GFP fusion) (from UniProt P34144 1-194)”, the binding entry in [5] is listed as “binds”.

Consider “GFP-RacA (D. discoideum RacA as GFP fusion) (from UniProt P34147 1-598)”, for which, in experiment [5], the binding entry is recorded as “binds”.

For the molecule “GFP-RacB (D. discoideum RacB as GFP fusion) (from UniProt P34148 1-195)”, the binding entry in [5] is “binds”.

Consider “GFP-RacC (D. discoideum RacC as GFP fusion) (from UniProt P34149 1-192)”, for which, in experiment [5], the binding result is “binds”.

B1: GFP-RacE (D. discoideum RacE as GFP fusion) (protein, UniProt Q23862 1-223)
chain: MSEDQGSGATRVKLVVVGDGAVGKTCLLICYAQNDFPVDYVPTVFENYTATRKRGNEDIKVHLWDTAGQEEYDRLRPLSYPGADVVLLCFSTISQSSYEAIRDKWAPEVNHYIPDVPSILVGTKIDLREQQHPDPNSGKFEPITADMGISMQKQIKAKKYLEVSAKTRQGLEEVFSAAIEIVLESRGMDKKSQDGSSSASGVPSGDKPTKGKAGKKKSGCIIL
B1: in experiment [5], the binding result is “binds”.

B2: Cortexillin II (D. discoideum, from cell lysate) (protein, UniProt Q550R2 1-441)
chain: MDLNKEWEKVQEMAFTSWVNSVLEKRGCDKISDVSTDLSDGVKLIYFLESVSGKKFPKKFDLEPKTRIMRVQNLHLAMLFIDEDLKIKVQGVAAEEFVDNNKKMILGFLWTLYRKYRISVINEGDKSSEEGLLAWCKKTTEGYNNVNITGFKSSFRDGHGFLALAHKYDPTVFKYDEYEGHDNIARLNAAFDFAEKGLGIPKLLEAESLSKGNVDERSIVLYTSLFFHAFRAKEEREALEASQNSLNNKLASLEQSLEGEKHSQEELVKQKKDLEDALNKIREQNDNRNSRITDLQSKIDDALRGLDDEKLAKLDLESRLAKCEKDKAILELKLAEILDEKDRLEKKIDEDKKRAEAERLGLGLIRQHLAAQFSDIHKWQSFLEHPETVPYTGTPVDLDSELSSLSFEEQAKKLASKLESENILIEKYLNGKEEAKAAAKK
Take B2: the binding entry in experiment [6] is “no binding”.

B3: GFP-GAPA (full length GAPA fused to GFP at the N-terminus) (protein, UniProt O00899 1-860)
chain: T2 sequence
Regarding B3, the binding result in [6], in experiment [7] and in [8] was “binds” in each case.

B4: Cortexillin I (endogenous, D. discoideum) (protein, UniProt Q54HG2 1-444)
chain: MAGKDWEIVQEKAFTAWVNSVLDKRGEKISDVGKDLSDGVKLIFFLELISSKKFNKKYDFEPKARINMIQNVALALKFLDEELKIKVQGIGSEDFVDNNKKMILGFLWTLYRKYRIAVISEGDKSSEEGLLLWCKNTTTGYDGVNITSFTKSFRDGLAFLALSHKFEPESFKFQEFEAMDPIARLNAAFDFAEKGLGVPKLLEAEEVMRGTTDERSLVLYTSLFFHAYRAKEEKARLESSKNEMANRLAGLENSLESEKVSREQLIKQKDQLNSLLASLESEGAEREKRLRELEAKLDETLKNLELEKLARMELEARLAKTEKDRAILELKLAEAIDEKSKLEQQIEATRIRGAAEAQGLGLLRKNLDTHVHDLLKWQKLTMENSSSSSIDDQIIVEVSGLPFGEQVKHLATKLEAENLAIMKLLNQKEDDLKAQKLKSSKSKK
With B4, the binding result in experiment [9] and in experiment [6] was “binds” each time.
